At least one structure is not confirmed: it was looked up by name or label, or the drawing left a doubt.
What was measured:
MDA-MB-231 LCOR-OE = experiment: Flow cytometry of APM components (TAP1, β2M, pan-HLA) in LCOR-overexpressing cells; type: cell-based, human; conditions: in vitro; ruxolitinib 1 µM (Fig. 3e-g)
[1] = test system: ISRE reporter in MDA-MB-231 LCOR-GFP knock-in; experiment: ISRE reporter flow cytometry in LCOR-GFP knock-in cells; type: cell-based, human; conditions: ruxolitinib 0.5 µM, 24 h (Fig. 4h)

Question: With N#CC[C@H](C1CCCC1)n1cc(-c2ncnc3[nH]ccc23)cn1 [ruxolitinib] as the molecule, how does the “ability of LCOR to induce different APM components” value (MDA-MB-231 LCOR-OE) read?
Answer: did not affect

Question: And the ISRE activity ([1]; LCOR+ cells (medium and high))?
Answer: not in LCOR+ cells

Question: What about the ISRE activity ([1]; LCOR- cells) of the same molecule?
Answer: inhibited ISRE activity only in LCOR- cells

— EP4431153A1, “MUTANTS OF A LIGAND-DEPENDENT COREPRESSOR (LCOR) AND USES THEREOF” (Fundació Institut Hospital del Mar d'Investigacions, priority 2023, dated 2024)
